Measured values published in patent publication EP2879657B1, “NOVEL SIRT1 ACTIVATORS AND PHARMACEUTICAL OR COSMETIC COMPOSITIONS COMPRISING THEM” (Centre National de la Recherche Scientifique (C.N.R.S.), priority 2012, dated 2014).
Some of these results come from one statement about several compounds together.

Assays:
Format in all cases: cell-based
[1] = test system: préadipocytes primaires sous-cutanés humains; test: Oil Red O staining of intracellular lipids during adipocyte differentiation; conditions: day 14 of differentiation, treated at J1 and J7, 10 and 50 µM
[2] = test system: préadipocytes primaires sous-cutanés humains; test: Intracellular triglyceride quantification (AdipoRed Assay Reagent) during adipocyte differentiation
[3] = test system: préadipocytes primaires sous-cutanés humains; test: Adipsin level in culture medium of differentiating adipocytes (BioPlex); conditions: day 7 of differentiation; 10, 25 and 50 µM; dose-dependent

`C[C@@H]([C@H]1CC[C@H]2[C@@H]3CC[C@H]4C[C@@H](O)CC[C@]4(C)[C@H]3CC[C@]12C)N(C)C` [C1, 20-(diméthylamino)-, (3β,5α,20S)-pregnan-3-ol] was tested, and the “accumulation de lipides (coloration par l'Oil Red O)” value [1] was “nette diminution”, the “diminution de la quantité des triglycérides” value ([2]; day 7, compound added once at J1, 10 and 50 µM, 10080 min) was 25 - 93% and the “diminution de la quantité des triglycérides” value ([2]; day 14, compound added at J1 and J7, 10 and 50 µM, 20160 min) was 16-98%. For the same compound, the “quantité d'adipsine dans le milieu de culture” value [3] was “diminution systématique”.
